Patent publication US6326464

Biological target: wild-type p53 (Homo sapiens) (UniProt P04637)
Assay: EMSA
Settings: 3-30 ng protein, 5 mM MgCl2, 0.05 mM ZnCl2, 0.1 M NaCl, on ice, 300 ng pAb421; purified recombinant protein; label: 33P 5' end

“GATCCGAACATGTCCCAACATGTTGA / AGCTTCAACATGTTGGGACATGGTCG [WAF-RE]”: binds.

The exact form of at least one protein or probe is not confirmed.
